Experimental data taken from US8765959B2, “Piperidine derivatives” (Boehringer Ingelheim International GmbH, priority 2011, dated 2014).

Amino acid sequences for entries named in this document (tags omitted). Residues count along the entry.
UniProt O00763, 129-2458 limits assumed: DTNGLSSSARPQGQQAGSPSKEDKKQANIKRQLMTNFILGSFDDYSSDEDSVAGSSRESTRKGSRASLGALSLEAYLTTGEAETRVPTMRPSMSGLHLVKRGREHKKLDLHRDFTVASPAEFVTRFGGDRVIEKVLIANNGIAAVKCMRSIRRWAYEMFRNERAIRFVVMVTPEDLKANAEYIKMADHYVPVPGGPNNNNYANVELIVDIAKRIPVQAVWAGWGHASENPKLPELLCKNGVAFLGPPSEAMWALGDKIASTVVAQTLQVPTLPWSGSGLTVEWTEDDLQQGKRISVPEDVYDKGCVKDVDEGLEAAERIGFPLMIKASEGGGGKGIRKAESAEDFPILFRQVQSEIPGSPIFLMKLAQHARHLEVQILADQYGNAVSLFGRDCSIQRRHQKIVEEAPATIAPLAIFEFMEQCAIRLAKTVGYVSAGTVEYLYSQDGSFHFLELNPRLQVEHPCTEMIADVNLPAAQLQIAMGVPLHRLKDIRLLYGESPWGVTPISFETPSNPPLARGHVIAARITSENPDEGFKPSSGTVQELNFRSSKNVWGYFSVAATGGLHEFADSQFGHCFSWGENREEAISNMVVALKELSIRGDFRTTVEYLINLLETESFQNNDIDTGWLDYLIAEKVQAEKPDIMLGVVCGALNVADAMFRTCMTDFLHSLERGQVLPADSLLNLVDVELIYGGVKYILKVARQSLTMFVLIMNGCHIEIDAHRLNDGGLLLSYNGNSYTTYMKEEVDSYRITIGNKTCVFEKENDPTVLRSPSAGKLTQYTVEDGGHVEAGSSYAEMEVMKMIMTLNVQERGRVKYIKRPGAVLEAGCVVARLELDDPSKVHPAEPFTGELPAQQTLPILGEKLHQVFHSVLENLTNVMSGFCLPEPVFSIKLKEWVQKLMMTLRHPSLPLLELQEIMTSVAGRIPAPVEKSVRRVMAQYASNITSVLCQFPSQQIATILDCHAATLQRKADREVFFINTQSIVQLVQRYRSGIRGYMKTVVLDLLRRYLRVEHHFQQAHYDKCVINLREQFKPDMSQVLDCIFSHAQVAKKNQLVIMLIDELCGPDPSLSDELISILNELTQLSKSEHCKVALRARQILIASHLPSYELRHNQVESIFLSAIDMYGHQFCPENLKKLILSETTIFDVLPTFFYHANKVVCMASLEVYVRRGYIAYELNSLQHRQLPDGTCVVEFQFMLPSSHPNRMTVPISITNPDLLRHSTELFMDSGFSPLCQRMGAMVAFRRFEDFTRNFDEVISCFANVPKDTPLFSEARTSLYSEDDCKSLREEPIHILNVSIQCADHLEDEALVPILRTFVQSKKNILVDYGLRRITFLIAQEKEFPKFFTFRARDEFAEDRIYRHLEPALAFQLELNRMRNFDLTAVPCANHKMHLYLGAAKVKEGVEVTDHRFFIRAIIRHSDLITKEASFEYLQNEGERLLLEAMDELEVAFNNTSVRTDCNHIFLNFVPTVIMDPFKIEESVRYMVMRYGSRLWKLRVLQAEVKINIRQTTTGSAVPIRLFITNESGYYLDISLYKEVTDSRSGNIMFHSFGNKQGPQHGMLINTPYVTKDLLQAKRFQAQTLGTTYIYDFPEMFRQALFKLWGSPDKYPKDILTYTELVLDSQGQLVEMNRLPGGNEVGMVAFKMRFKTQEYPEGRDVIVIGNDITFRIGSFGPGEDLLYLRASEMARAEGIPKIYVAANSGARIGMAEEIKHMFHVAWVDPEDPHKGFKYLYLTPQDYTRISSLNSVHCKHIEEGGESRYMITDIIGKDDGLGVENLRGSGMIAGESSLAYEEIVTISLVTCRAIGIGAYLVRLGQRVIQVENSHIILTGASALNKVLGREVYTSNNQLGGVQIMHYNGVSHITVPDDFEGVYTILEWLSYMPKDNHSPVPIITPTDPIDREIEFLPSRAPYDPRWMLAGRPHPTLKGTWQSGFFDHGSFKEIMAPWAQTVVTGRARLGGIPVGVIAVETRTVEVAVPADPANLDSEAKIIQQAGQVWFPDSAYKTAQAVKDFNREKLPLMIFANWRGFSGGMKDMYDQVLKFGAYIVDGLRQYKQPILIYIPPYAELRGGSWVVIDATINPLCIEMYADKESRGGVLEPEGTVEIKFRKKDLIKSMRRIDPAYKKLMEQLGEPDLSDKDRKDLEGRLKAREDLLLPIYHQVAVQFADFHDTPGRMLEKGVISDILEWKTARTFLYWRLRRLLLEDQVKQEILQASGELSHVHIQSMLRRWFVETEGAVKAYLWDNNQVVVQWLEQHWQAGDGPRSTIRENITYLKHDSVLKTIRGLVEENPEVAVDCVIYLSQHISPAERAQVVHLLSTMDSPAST

Molecular target: human ACC2 (Homo sapiens, UniProt O00763)
Experiment: ACC2 assay, spectrophotometric 384 well assay (NADH-linked, coupled lactate dehydrogenase/pyruvate kinase)
Type: biochemical
Settings: human ACC2 construct lacking 128 N-terminal amino acids, 25° C., 340 nm, 15 minutes
Protocol: Spectrophotometric 384 Well Assay
Malonyl CoA formation by acetyl CoA carboxylases is stoichometrically linked to the consumption of ATP. ACC2 activity is measured in a NADH-linked kinetic method measuring ADP generated during the ACC reaction using a coupled lactate dehydrogenase/pyruvate kinase reaction.
For biological testing, a human ACC2 construct which lacks the 128 amino acids at the N-terminus for increased solubility (nt 385-6966 in Genbank entry AJ575592) is cloned. The protein is then expressed in insect cells using a baculoviral expression system. Protein purification is performed by anion exchange.
All compounds are dissolved in dimethyl sulfoxide (DMSO) to a concentration of 10 mM.
Assay reactions are then carried out in 384-well plates, with hACC2 in an appropriate dilution and at final assay concentrations (f.c.) of 100 mM Tris (pH 7.5), 10 mM trisodium citrate, 25 mM KHCO3, 10 mM MgCl2, 0.5 mg/ml BSA, 3.75 mM reduced L-glutathione, 15 U/ml lactate dehydrogenase, 0.5 mM phosphoenolpyruvate, 15 U/ml pyruvate kinase, compounds at different concentrations at final DMSO concentrations of 1%.
The enzymatic reaction is then started by addition of a mixture of NADH, acetyl Coenzyme A (both 200 μM f.c.) and ATP (500 uM f.c.). The decrease of the optical density (slope S) is then determined at 25° C. at a wavelength of 340 nm over 15 minutes in a spectrophotometric reader. […]

- IC50: 1150 nM
SMILES: CCCOc1ccc(C2CCN(c3ccc(C(C)NC(C)=O)cc3OC)CC2)c(C)c1 (stereo not shown)

The match of structure and compound is tentative.
